Results as given in the supplement of paper PMC10849652.
This is one part of the list.

Protein sequences, listed by entry. Tags and fused reporters are not part of them. Lines headed by an entry give the natural chain unless they say otherwise; changes in a name come on top.
UniProt Q9BW85: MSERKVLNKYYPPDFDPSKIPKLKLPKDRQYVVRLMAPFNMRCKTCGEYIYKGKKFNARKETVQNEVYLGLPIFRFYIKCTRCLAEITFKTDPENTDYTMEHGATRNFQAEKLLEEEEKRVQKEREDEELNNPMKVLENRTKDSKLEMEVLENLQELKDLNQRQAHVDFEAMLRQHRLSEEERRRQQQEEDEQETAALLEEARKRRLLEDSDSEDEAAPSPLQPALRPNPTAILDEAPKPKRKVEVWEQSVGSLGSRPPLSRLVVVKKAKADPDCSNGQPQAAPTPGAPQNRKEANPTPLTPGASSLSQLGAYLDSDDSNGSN
UniProt P17028: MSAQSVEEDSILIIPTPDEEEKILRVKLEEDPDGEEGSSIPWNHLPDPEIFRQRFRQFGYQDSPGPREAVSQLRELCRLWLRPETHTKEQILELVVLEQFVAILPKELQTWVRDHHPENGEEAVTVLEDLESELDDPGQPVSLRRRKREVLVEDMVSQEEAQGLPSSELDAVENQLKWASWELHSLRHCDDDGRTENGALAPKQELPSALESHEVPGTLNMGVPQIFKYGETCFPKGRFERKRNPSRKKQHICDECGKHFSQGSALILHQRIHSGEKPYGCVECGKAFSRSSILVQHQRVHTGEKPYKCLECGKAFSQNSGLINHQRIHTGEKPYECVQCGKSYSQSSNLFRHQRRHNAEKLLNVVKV
UniProt O95405: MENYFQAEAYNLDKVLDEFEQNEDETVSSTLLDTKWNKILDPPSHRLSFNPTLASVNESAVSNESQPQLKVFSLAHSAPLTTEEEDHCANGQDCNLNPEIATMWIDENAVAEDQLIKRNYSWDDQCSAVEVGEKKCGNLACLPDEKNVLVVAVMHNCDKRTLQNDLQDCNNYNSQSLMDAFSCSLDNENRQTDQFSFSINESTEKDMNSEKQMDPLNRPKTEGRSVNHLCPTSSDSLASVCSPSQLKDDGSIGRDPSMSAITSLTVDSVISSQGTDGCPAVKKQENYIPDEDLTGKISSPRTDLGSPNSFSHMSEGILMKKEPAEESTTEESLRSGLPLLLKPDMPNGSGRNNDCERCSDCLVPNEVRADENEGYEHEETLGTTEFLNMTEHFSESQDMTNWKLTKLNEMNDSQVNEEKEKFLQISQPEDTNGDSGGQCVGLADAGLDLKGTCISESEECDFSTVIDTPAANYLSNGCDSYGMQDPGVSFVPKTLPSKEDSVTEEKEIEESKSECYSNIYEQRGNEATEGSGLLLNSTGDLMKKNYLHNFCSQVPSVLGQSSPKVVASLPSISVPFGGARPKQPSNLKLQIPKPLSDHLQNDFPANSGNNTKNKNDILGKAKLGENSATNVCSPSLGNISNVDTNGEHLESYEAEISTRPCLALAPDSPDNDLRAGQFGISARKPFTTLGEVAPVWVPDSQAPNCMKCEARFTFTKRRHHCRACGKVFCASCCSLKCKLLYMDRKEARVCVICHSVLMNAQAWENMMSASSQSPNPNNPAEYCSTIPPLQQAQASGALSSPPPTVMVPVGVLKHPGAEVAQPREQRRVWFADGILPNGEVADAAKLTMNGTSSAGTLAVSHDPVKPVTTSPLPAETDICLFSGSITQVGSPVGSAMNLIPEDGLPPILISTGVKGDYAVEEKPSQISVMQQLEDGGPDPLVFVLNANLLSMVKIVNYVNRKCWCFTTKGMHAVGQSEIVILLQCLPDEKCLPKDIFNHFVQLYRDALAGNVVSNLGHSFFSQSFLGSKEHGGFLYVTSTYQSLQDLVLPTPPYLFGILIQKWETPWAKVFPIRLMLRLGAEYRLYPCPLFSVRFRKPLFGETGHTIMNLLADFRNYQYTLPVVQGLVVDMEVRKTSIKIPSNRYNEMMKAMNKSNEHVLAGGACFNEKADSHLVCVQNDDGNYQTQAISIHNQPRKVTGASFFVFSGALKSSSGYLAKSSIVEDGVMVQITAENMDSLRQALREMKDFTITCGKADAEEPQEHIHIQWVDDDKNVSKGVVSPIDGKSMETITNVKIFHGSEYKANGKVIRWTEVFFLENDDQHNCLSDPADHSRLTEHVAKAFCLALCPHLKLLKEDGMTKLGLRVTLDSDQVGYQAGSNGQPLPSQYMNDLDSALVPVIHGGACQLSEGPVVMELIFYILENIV
UniProt Q8WV99: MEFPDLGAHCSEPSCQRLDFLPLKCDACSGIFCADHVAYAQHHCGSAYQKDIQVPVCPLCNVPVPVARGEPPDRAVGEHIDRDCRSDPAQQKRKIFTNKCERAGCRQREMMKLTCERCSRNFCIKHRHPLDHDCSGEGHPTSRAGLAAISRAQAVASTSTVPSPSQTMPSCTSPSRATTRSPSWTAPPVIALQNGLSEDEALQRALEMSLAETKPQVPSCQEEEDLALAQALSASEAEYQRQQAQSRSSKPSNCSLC
UniProt Q8IZN3: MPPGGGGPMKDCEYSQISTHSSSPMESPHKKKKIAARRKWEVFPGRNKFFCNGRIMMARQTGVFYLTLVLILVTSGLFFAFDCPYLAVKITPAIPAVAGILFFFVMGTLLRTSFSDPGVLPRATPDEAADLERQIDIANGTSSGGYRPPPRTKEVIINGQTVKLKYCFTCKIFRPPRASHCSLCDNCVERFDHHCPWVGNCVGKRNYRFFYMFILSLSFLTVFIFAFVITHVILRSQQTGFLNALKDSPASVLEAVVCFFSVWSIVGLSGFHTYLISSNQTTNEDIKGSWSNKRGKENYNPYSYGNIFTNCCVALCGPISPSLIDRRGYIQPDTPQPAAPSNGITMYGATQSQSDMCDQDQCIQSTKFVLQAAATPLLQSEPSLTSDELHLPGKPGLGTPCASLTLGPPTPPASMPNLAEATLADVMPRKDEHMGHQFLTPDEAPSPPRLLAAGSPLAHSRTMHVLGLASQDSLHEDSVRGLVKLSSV
UniProt P16989, whole entry, looked up: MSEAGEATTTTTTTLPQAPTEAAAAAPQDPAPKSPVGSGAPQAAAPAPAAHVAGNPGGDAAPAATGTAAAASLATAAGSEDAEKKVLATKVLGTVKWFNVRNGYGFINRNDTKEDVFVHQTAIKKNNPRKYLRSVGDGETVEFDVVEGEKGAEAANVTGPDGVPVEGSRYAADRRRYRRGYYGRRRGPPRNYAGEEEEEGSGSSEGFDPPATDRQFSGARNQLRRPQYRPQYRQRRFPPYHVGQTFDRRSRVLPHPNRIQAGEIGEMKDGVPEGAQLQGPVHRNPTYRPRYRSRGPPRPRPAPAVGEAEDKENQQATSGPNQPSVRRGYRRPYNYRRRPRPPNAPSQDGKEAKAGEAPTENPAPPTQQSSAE
UniProt O95159: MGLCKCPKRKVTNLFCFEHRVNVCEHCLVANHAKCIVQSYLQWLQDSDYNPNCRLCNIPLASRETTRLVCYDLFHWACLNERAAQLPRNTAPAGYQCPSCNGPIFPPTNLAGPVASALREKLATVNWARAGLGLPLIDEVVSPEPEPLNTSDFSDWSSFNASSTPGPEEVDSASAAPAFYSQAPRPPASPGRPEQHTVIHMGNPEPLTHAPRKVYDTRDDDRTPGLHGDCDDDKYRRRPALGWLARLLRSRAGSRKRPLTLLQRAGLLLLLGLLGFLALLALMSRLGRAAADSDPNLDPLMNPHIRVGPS
UniProt P13010: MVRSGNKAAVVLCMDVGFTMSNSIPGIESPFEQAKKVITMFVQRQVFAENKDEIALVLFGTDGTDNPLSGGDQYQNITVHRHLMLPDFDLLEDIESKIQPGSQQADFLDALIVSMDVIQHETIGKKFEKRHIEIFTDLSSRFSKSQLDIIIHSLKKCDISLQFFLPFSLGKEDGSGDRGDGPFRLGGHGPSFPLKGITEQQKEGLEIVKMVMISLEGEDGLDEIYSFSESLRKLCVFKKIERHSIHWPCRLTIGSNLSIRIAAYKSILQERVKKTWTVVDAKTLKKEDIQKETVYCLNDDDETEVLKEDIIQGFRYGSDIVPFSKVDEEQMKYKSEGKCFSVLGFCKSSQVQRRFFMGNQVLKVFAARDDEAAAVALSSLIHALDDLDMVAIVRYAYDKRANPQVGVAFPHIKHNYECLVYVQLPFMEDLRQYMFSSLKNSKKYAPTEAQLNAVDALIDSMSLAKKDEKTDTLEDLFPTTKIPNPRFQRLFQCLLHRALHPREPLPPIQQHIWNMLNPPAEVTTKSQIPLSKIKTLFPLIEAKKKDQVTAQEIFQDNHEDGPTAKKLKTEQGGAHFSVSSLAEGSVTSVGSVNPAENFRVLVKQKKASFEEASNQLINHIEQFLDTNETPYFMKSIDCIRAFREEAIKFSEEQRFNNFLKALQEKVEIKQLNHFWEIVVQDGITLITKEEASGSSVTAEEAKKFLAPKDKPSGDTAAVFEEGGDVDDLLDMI
UniProt Q96NC0: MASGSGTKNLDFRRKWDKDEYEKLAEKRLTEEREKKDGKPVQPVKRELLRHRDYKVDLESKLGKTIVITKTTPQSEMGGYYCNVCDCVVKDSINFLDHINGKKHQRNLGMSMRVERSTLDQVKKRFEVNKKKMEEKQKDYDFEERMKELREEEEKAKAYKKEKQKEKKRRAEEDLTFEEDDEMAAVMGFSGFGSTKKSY
UniProt P12956: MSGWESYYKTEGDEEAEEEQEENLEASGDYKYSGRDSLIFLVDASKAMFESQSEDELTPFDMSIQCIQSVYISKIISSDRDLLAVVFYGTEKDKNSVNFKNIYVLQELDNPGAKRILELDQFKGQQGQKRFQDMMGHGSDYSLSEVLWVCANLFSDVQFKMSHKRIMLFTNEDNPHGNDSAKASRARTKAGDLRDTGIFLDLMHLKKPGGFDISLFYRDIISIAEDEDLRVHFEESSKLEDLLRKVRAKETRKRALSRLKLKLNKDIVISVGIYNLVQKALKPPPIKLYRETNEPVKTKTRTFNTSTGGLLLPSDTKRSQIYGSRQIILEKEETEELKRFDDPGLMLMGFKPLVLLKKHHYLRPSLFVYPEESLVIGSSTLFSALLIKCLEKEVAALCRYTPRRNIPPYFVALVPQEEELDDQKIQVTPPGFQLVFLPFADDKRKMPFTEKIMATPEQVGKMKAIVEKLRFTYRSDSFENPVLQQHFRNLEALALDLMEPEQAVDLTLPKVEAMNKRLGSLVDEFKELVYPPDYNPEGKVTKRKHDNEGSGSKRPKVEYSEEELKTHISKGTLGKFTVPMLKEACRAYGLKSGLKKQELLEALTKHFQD
UniProt Q9NQH7: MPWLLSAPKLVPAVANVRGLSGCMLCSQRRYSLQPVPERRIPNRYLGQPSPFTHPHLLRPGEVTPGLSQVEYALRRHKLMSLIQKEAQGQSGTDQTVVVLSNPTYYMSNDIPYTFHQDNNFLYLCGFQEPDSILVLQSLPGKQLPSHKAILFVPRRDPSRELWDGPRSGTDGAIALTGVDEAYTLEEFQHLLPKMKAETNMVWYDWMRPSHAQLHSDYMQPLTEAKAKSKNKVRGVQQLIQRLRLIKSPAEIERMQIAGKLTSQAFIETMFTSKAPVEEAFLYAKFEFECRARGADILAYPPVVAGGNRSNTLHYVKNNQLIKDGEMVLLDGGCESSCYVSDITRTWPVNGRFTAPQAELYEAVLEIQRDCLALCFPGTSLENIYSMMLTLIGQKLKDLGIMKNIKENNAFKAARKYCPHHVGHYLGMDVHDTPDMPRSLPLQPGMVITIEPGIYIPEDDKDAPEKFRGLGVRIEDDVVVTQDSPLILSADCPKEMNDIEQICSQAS
UniProt Q8IUH5: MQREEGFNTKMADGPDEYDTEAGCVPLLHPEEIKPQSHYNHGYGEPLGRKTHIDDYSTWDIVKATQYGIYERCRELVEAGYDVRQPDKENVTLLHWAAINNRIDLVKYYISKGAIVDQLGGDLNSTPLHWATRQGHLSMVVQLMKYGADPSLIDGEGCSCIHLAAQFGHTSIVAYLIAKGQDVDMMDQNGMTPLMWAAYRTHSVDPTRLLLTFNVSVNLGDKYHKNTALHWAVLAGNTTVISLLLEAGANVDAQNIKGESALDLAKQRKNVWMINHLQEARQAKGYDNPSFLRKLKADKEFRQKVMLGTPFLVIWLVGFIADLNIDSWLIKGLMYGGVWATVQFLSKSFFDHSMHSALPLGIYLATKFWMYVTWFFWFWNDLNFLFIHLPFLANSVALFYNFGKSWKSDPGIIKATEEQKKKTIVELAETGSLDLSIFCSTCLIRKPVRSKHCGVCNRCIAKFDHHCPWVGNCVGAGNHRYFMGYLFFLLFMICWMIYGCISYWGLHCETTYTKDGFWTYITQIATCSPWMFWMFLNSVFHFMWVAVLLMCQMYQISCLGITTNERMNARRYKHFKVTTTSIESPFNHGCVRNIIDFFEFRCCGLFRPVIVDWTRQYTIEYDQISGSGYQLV
UniProt P31946: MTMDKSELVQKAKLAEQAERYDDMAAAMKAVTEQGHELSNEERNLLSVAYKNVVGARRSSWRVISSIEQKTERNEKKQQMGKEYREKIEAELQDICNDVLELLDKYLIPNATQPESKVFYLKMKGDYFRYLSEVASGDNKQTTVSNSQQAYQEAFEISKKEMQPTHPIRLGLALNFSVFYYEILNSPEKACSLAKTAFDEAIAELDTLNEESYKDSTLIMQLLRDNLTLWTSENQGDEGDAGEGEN

compound: CCn1c(C(=O)N(C2CC2)C2CC2)cc2c3c(ncn3C)c(Nc3cc(C)n(C)n3)nc21; test: log2 fold change, soluble protein after heating vs DMSO (PISA); higher = thermal stabilisation; K562 cells, 10 uM, 30 min; active = over 0.2 and 3.5 SD of the protein, either way, in both replicates (recomputed)
Method in brief: (§1)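 K562 cells (2×10^6 cells/mL) were treated with 10 μM compound for 30 min, and aliquots were heated for 3 min over 48°C-58°C. Pooled aliquots were extracted in PBS with 0.5% NP-40 at 4°C, and the supernatant after 21,000xg for 90 min was measured by TMTpro 16plex LC-MS/MS with channel sums equalised. Reported thermal stability, relative to control samples and from duplicates, is a log2 fold change.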

log2 fold change, inactive:
YJU2 (UniProt Q9BW85) 0.03
ZNF24 (UniProt P17028) -0.024
YARS (UniProt P54577) -0.045
ZFYVE9 (UniProt O95405) -0.155
ZFAND2B (UniProt Q8WV99) -0.045
ZDHHC14 (UniProt Q8IZN3) 0.014
YBX3 isoform 2 (UniProt P16989) 0.049

compound: CCn1cc(-c2ccnc3[nH]c(-c4cccc(CN(C)C)c4)cc23)c(-c2ccc(NC(=O)N(C)C)cc2)n1; test: as above
Method in brief: as §1

log2 fold change, inactive:
YJU2 (UniProt Q9BW85) -0.028
ZFAND5 (UniProt O76080) -0.017
ZNF24 (UniProt P17028) 0.118
ZFPL1 (UniProt O95159) 0.032
ZMYM3 (UniProt Q14202) 0.018
XRCC5 (UniProt P13010) 0.009
ZMAT2 (UniProt Q96NC0) 0.022
YARS (UniProt P54577) 0.009
YIPF4 (UniProt Q9BSR8) 0.037
ZFP91 (UniProt Q96JP5) 0.07
XRCC6 (UniProt P12956) 0.008
YY1 (UniProt P25490) 0.002
XPNPEP3 (UniProt Q9NQH7) -0.076
ZFAND2B (UniProt Q8WV99) 0.244
ZDHHC17 (UniProt Q8IUH5) -0.018
YWHAB (UniProt P31946) 0.014
XPO1 (UniProt O14980) -0.13
